Reference: paper doi:10.1101/773804
These are yes or no findings as the source states them, for the method shown. In cells and extracts the contact can be indirect. Tags and fused reporters may be left off the sequences shown.

Sequences of proteins named here, by UniProt entry; tags and fusion partners are left off. A change or cut given only in a name is not applied to a line headed by its entry.
UniProt P07686: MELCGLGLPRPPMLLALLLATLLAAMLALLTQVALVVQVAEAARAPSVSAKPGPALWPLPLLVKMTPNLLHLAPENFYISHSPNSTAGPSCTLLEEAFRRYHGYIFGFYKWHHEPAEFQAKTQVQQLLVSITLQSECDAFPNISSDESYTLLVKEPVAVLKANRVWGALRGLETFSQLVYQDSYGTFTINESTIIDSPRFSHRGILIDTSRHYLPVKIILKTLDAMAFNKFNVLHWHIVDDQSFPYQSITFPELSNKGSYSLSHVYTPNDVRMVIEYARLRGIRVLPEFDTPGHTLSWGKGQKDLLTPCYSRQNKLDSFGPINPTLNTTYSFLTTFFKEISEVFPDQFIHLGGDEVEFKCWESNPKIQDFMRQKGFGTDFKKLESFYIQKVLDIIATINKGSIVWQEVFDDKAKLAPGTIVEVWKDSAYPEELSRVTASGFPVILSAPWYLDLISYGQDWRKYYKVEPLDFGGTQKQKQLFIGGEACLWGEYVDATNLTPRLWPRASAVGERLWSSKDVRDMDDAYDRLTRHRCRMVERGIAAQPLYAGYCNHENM

Molecular target: T1, myc-tagged CLN6 (human (cDNA from HeLa and HEK293-T RNA)) (UniProt Q9NWW5)
T1 sequence: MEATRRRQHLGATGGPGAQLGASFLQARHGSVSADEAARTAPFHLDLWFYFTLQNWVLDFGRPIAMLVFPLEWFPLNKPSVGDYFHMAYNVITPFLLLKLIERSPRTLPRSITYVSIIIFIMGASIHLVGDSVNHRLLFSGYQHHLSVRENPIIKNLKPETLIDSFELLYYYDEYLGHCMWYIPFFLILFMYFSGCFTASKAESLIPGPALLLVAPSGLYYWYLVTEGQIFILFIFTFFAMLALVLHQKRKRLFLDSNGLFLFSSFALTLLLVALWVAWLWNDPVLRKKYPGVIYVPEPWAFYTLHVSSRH
Test: co-IP

- binding: no binding
Substance: HEXB, YFP-tagged (from UniProt P07686) (enzyme)
